Results are given in words; binding and its absence hold for the method and conditions named. Binding seen in cells or lysates may run through a third protein. Tags and fused reporters may be left off the sequences shown.
Columns and labels:
Experiment in all cases: split reporter; BiFC with split Venus in living zebrafish embryos: Buc constructs with VC and zfVasa constructs with VN at their C-termini, mRNAs (200 ng/μL) co-injected at the one-cell stage, fluorescence imaged at 3 hpf by confocal microscopy; read-out percent of fluorescent embryos, three independent …
[1] = target: zfVasa I609Q (full length) fused to the Venus N-terminal half (zebrafish)
[2] = target: zfVasa-IDR (amino acids 1–277) fused to the Venus N-terminal half (zebrafish)
[3] = target: zfVasa RecA-NTD (amino acids 278–495) fused to the Venus N-terminal half (zebrafish)

Measured: binding

B1: Bucky ball, full length (amino acids 1–639), fused to the Venus C-terminal half (Buc-VC) (protein, UniProt H0WFA5 1-639)
chain: MEGINNNSQPMGVGQPHHPVNHTRPFFYVQPPSQPYFMYQWPMNPYGHYGFPGPALHFGRPYMAPYQFMQYPGYVIPHAPMQPIDYRRINPHYPSVASYDLRVRHHFQNAGMHRETACSEVQTDPSDSVNKLIDKIESLKACELGSDKGPNNVVSSTPDVVQGEKLTRLNEDSNLEVATKECKEDPVTRPTTYSDSAYDAESSQGRLDECVFSDVLPLDSSSVHEEEEEEEKDVNEEDEPQTVADEICSQNEMSASTTSNVFCSGVQSIADPTECHDLEKLGDEQKQDIPSADAAAVIEPLISLSEDFDLPYQILRLPCNKTTTGLSLEREIDPLVYFDSPSTLLPPQNYLSSIGSAYSYSYYPQVTQERQSVLSPSIDELSSRDEMFSTDVEDLEVVPGHVYVGGGRLAEASDMPVRSRKELPSVDKTCSVCQKTCACCGSTLQDEVGMCKMAEHSHPERDEMSDQDCDYDLEAEVRSNCESPRVSKRKCCSRHALPSCGHHCAKHRHRKLLCEGQESCDLREQARVHPKGECCEEYGALAKADKRIQKGALCRPCIEQQWREGVVSDQENWASCGAKPRSWRQVTGPQDQGRTPLRRSTCKSIHQQRPRSEYNDYDETEFTYCQRGRGSMKKRGSRY
no binding: all assays above
